# Laboratory results: PubChem BioAssay AID2551 (National Center for Advancing Translational Sciences (NCATS), 2010)
# By UniProt entry, the sequences of proteins in these tests, tags left out. Where a name states a change or a piece, a line headed by the entry shows the natural chain unless it says otherwise.
# UniProt P51450: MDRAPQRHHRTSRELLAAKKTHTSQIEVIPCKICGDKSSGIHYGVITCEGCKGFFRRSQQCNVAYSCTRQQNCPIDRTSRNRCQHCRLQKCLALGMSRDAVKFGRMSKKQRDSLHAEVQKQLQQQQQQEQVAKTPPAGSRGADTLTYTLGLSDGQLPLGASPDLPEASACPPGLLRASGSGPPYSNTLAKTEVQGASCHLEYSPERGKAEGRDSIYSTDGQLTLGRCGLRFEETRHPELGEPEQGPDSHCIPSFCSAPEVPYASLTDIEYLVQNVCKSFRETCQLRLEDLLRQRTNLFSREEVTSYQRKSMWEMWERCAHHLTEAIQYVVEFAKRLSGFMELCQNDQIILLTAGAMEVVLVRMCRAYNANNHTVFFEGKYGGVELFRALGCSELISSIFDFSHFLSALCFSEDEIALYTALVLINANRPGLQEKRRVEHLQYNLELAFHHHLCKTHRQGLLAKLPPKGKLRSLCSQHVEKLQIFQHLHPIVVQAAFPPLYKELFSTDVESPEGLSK
# Screen size: about 310,000 compounds; about 17,000 (5.5%) were called active. The shares of active, inactive and inconclusive entries below differ from those in the screen. The call rests on the fitted dose curve; in most records, active means well fitted inhibition curve with a large enough effect; inconclusive means small, poorly fitted or top-dose-only effect, or effect the other way; inactive means no such curve, though single readings can be large or run the other way. A potency beside an inconclusive call is a rough fit, not a confirmed value.
# Target: Nuclear receptor ROR-gamma (Mus musculus) (UniProt P51450)
# Assay: qHTS for inhibitors of ROR gamma transcriptional activity; further: nearly all actives have a fitted effect of over 60% in size
# Details: Drosophila S2 Gal4-RORgamma UAS-luciferase reporter, 20 h; series mostly up to 53.6 µM
# Method in brief: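 Using a luciferase readout, inhibitors were identified by reduced reporter activity in Drosophila cells coexpressing a copper-inducible Gal4–ROR gamma fusion and UAS-driven Photinus luciferase, incubated 20 hr after 700 uM copper sulfate.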
# Potency means the concentration at half of the fitted maximal effect.
row,SMILES,Potency
1,Cc1ccc(C(=O)N/N=C\c2cc(Br)c(Br)o2)cn1,active: 11.2 µM
2,S=c1[nH]c(-c2ccccc2)cn1/N=C/c1cccs1,"inconclusive: 35.5 µM [inhibitor, single point]"
3,Cc1ccc(-c2ccc(C(=O)NCc3ccc(Cl)cc3)o2)c2ccccc12,"inconclusive: 15.8 µM [inhibitor, single point]"
4,COc1ccc2nc(SCCOC(=O)Nc3ccc(Cl)cc3)nc(C)c2c1,"inconclusive: 17.8 µM [activator, single point]"
5,COC1OC2COC(c3ccccc3)OC2C(O)C1O (stereo not drawn),"inconclusive: 35.5 µM [activator, partial curve, poor fit]"
6,Cc1cc(OCCCCOc2ccc(S(N)(=O)=O)c(C)c2)ccc1S(N)(=O)=O,"inconclusive: 15.8 µM [activator, partial curve]"
7,CSc1ccc(CCNC(=O)CCc2nnc3ccc(N4CCC5(CC4)OCCO5)nn23)cc1,inactive
8,COc1ccc(C(=O)NC(=S)Nc2ccc(N3CCOCC3)c(Cl)c2)cc1[N+](=O)[O-],"inconclusive: 1.41 µM [inhibitor, single point]"
9,Cc1ccc(-c2c(C3C4C=CCCC4(C)C(=O)N3Cc3ccccc3)ccc3ccccc23)cc1 (stereo not drawn),"inconclusive: 15.8 µM [activator, single point]"
10,O=C(N/N=C/c1ccc(-c2ccccc2Cl)o1)c1ccccc1,active: 3.55 µM
11,c1ccc2[nH]c(NN=C3CCCCCC3)nc2c1,active: 11.2 µM
12,CCC(=O)Nc1ccc(Cl)c(NC(=S)NC(=O)COc2ccccc2)c1,inactive
13,COC(=O)c1scc(C#N)c1N/N=C(\C#N)S(=O)(=O)c1ccc(Cl)cc1,"inconclusive: 12.6 µM [activator, partial curve]"
14,COc1cccc(C(=O)N(Cc2ccccc2)Cc2cc3cc4c(cc3[nH]c2=O)OCCO4)c1,"inconclusive: 22.4 µM [activator, single point]"
15,COc1cccc(N2CCN(S(=O)(=O)c3ccc4c(c3)N(C(C)=O)CCO4)CC2)c1,"inconclusive: 14.1 µM [activator, single point]"
16,O=C(N/N=C/c1cccs1)c1cccc2cc[nH]c12,active: 2.82 µM
17,COC(=O)CCCC1=CC2=CC(=O)C(C)(O)C(=O)C2=CO1 (stereo not drawn),inactive
18,CCC(C)C(NC)C(=O)O (stereo not drawn),inactive
19,CC(=O)c1cccc(NC(=S)NCCc2ccc(Cl)cc2)c1,active: 12.6 µM
20,CC1(C)CC(=O)C(C=NCCN2CCN(C(=O)c3ccc(Br)cc3)CC2)=C(O)C1,"inconclusive: 35.5 µM [activator, single point]"
21,Cc1ccc(O)c(C(=O)c2cc(C#N)c(=O)n(-c3nccs3)c2)c1,"inconclusive: 3.98 µM [activator, single point]"
22,COc1ccc(C2C=C3CNS(=O)(=O)C3CC2OC(=O)c2ccc(C(F)(F)F)cc2)cc1 (stereo not drawn),"inconclusive: 11.2 µM [inhibitor, single point]"
23,CCC(NC(=O)OCc1ccccc1)C(=O)Oc1ccc2ccc(=O)oc2c1 (stereo not drawn),inactive
24,N#Cc1cc(C(=O)c2cc(Cl)ccc2O)cn(-c2ccccc2)c1=O,"inconclusive: 11.2 µM [activator, partial curve]"
25,Cc1snnc1C(=O)NC(=S)Nc1ccccc1,active: 4.47 µM
26,CCN(C(=O)c1ccco1)c1nnc(-c2ccc(OC)cc2)s1,"inconclusive: 25.1 µM [inhibitor, single point]"

row,SMILES,Potency
1,CCC1CCCCN1CCCNC(=O)Cn1c(=O)c2cccn2c2cccnc21 (stereo not drawn),"inconclusive: 0.199 µM [inhibitor, full curve]"
2,Cc1cccc(NC(=O)CSc2nc3nc(C)cc(C)n3n2)c1,"inconclusive: 11.2 µM [activator, single point]"
3,CCCCCCC(=O)N(O)C1CC(=O)N(c2ccc(C)cc2)C1=O (stereo not drawn),active: 11.2 µM
4,COc1ccc(S(=O)(=O)N2CCC(C(=O)NCCc3ccc4c(c3)OCO4)CC2)cc1,inactive
5,Cc1ccc2c(c1)c(C)c(C)n2CC(O)Cn1nnc2ccccc21 (stereo not drawn),"inconclusive: 35.5 µM [activator, single point]"
6,CCOC(=O)Cc1csc(NS(=O)(=O)c2ccc3ccccc3c2)n1,"inconclusive: 20 µM [inhibitor, single point]"
7,O=C(NCC(=O)N1CCN(S(=O)(=O)/C=C/c2ccccc2)CC1)c1ccccc1F,inactive
8,O=C(CCc1nnc2ccc(NCc3ccco3)nn12)Nc1ccc(F)cc1,"inconclusive: 14.1 µM [activator, partial curve]"
9,Cc1ccc(C(=O)NNC(=O)c2ccc3ccccc3c2O)cc1,active: 14.1 µM
10,O=C(COc1ccccc1)N=C1SC2CS(=O)(=O)CC2N1c1cccc(F)c1 (stereo not drawn),inactive
11,Brc1cc(Br)c2nc(-c3ccc(N4CCOCC4)cc3)ccc2c1,"inconclusive: 1.78 µM [activator, partial curve]"
12,Cc1ccc(NC(=O)/C=C/C(=O)O)c([N+](=O)[O-])c1,inactive
13,O=C(Cc1ccc(N2CCNC2=O)cc1)N1CCCC(Nc2ccc(F)c(F)c2)C1 (stereo not drawn),inactive
14,CCC(=O)NNc1ncnc2c1cnn2-c1cccc(C)c1,"inconclusive: 12.6 µM [inhibitor, single point]"
15,COc1ccc(-c2ocnc2C(=O)Nc2ccc3c(c2)CCC3)cc1,"inconclusive: 35.5 µM [inhibitor, single point]"
16,COc1cc(-c2nnc(COc3ccc4ccccc4c3)o2)cc(OC)c1OC,inactive
17,O=C(CCCl)N(Cc1nc2ccccc2c(=O)[nH]1)Cc1cccs1,active: 11.2 µM
18,CNC(=S)N(CCc1c(C)[nH]c2ccc(OC)cc12)Cc1ccco1,inactive
19,CCCCCc1nnc(NC(=O)C2CCCO2)s1 (stereo not drawn),inactive
20,Fc1ccc(-c2csc(NC(=S)Nc3ccccc3)n2)cc1,active: 0.891 µM
21,CCC(=O)N(Cc1ccco1)c1nc(C(=O)Nc2ccc(Cl)cc2)c(C)s1,"inconclusive: 11.2 µM [activator, partial curve]"
22,Cc1cccc(CNC(=O)c2ccccc2N)c1,"inconclusive: 11.2 µM [activator, single point]"
23,O=C(COc1cc(F)ccc1[N+](=O)[O-])NCCCc1ccccc1,inactive
24,Cc1ccccc1OCc1csc(N)n1,"inconclusive: 11.2 µM [activator, single point]"
25,CN1CCN(S(=O)(=O)c2ccc(Cl)s2)CC1,inactive
26,Cc1ccc(-n2[nH]c(C)c(C=Nc3ccc(C)cn3)c2=O)cc1,"inconclusive: 0.794 µM [inhibitor, single point]"

# 7 entries picked at random from the list so far:
row,SMILES,Potency
6,CCOC(=O)Cc1csc(NS(=O)(=O)c2ccc3ccccc3c2)n1,"inconclusive: 20 µM [inhibitor, single point]"
9,Cc1ccc(C(=O)NNC(=O)c2ccc3ccccc3c2O)cc1,active: 14.1 µM
15,COc1ccc(-c2ocnc2C(=O)Nc2ccc3c(c2)CCC3)cc1,"inconclusive: 35.5 µM [inhibitor, single point]"
14,CCC(=O)NNc1ncnc2c1cnn2-c1cccc(C)c1,"inconclusive: 12.6 µM [inhibitor, single point]"
19,CCCCCc1nnc(NC(=O)C2CCCO2)s1 (stereo not drawn),inactive
16,COc1cc(-c2nnc(COc3ccc4ccccc4c3)o2)cc(OC)c1OC,inactive
4,COc1ccc(S(=O)(=O)N2CCC(C(=O)NCCc3ccc4c(c3)OCO4)CC2)cc1,inactive

# The listing continues.

row,SMILES,Potency
1,O=C(N/N=C/c1c[nH]c2ccccc12)c1ccccc1Cl,inactive
2,Cn1nc(-c2ccccc2)cc1NC(=O)C1CCCCC1,"inconclusive: 6.31 µM [activator, single point]"
3,COCCn1c(-c2ccc(OC)cc2)cnc1N,"inconclusive: 35.5 µM [inhibitor, single point]"
4,Cn1c(O)c(N=NC(=O)c2ccco2)c2ccccc21,"inconclusive: 14.1 µM [inhibitor, partial curve]"
5,CCN(CC)CCN(C(=O)CCS(=O)(=O)c1ccccc1)c1nc2cc(C)cc(C)c2s1,active: 20 µM
6,Cc1ccc(-n2nnnc2SC(C)C(N)=O)c(C)c1 (stereo not drawn),inactive
7,COCCN(C(=O)COC(=O)c1ccc(C=O)cc1)c1c(N)n(Cc2ccccc2)c(=O)[nH]c1=O,"inconclusive: 35.5 µM [inhibitor, partial curve, poor fit]"
8,O=C(Nc1cccnc1)c1cn(-c2ccccc2)nc1-c1cccs1,"inconclusive: 3.55 µM [activator, full curve]"
9,COc1ccc(C2=NOC(C(=O)Nc3cccnc3Cl)C2)cc1 (stereo not drawn),"inconclusive: 35.5 µM [activator, single point]"
10,CCc1nc2ccccc2n1Cc1ccccc1F,active: 10 µM
11,CCCCN(CCCC)c1cn[nH]c(=O)c1Cl,"inconclusive: 12.6 µM [activator, single point]"
12,Cc1cc(C(=O)Nc2sc3c(c2C#N)CCCC3)no1,"inconclusive: 35.5 µM [inhibitor, single point]"
13,Cc1c(Cl)cccc1NC(=O)CCN1C(=O)C2CC=CCC2C1=O (stereo not drawn),inactive
14,CC(=O)N(C)c1ccc(NC(=O)c2ccco2)cc1,"inconclusive: 10 µM [inhibitor, single point]"
15,OCCN1CCN(Cc2cc(Cl)c3cccnc3c2O)CC1,active: 5.62 µM
16,CCOc1ccc(/C=N/n2c(C3CCCCC3)n[nH]c2=S)cc1,active: 3.98 µM
17,CCOc1ccc(Oc2ccc(Cl)cc2N)cc1,inactive
18,COc1ccc(CCN2CN(S(=O)(=O)c3ccccc3)c3nc4ccccc4nc32)cc1,inactive
19,CCOc1ncccc1C(=O)Nc1cccc(C(=O)Nc2cccc(S(=O)(=O)CCO)c2)c1,inactive
20,Cc1ccc2cc(C#N)c(N3CCCN(C(=O)c4cnccn4)CC3)nc2c1,inactive
21,O=C(NC(=S)Nc1ccccc1N1CCCCC1)c1ccc(-c2cccc([N+](=O)[O-])c2)o1,active: 0.501 µM
22,CC(=O)N1N=C(c2ccccc2)OC1(C)CC(=O)Nc1ccccc1 (stereo not drawn),"inconclusive: 12.6 µM [activator, partial curve]"
23,CC1Cc2cc(C3(O)C(=O)c4ccccc4C3=O)ccc2N1 (stereo not drawn),"inconclusive: 0.141 µM [inhibitor, single point]"
24,c1cc(C2CCN(Cc3nc(-c4ccc5c(c4)OCO5)no3)CC2)ccn1,inactive
25,COC(=O)c1ccc(NC(=S)NCCc2ccccc2C)cc1,active: 12.6 µM
26,Cc1ccc(CNC(=O)c2ccc(Cn3cc(-c4ccc(C)cc4)nc3-c3ccncc3)cc2)cc1,"inconclusive: 17.8 µM [activator, partial curve]"
